According to the M2OR odorant receptor database:
This is a selection; strong and weak results do not stand in their true shares. The calls were merged from several studies; some rest on single wells. Some of the results follow.

Tests used:
Settings in all cases: stereoisomer not certain
OR4F4 = test system: T1, OR4F4
T1 sequence (whole entry): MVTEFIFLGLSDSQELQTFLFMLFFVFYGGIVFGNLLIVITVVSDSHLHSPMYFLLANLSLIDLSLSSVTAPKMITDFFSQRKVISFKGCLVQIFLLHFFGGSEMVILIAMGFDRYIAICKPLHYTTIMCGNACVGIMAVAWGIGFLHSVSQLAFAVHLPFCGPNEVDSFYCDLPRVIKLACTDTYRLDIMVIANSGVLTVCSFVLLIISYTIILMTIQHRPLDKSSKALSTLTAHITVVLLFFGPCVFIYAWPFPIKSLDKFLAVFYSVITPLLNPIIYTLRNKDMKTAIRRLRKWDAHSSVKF
Procedure, shortened: (§1)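 Values were gathered from published papers (main text and supplementary material), with extra details requested from the original authors when needed, and checked for typos and inconsistencies. Each receptor–molecule pair is called responsive (active) if the original authors judged the measured signal statistically different from baseline, and non-responsive (inactive) otherwise. Assay methods varied by source, often transient mammalian cell-line luciferase assays. Recorded details include cell line, G-protein, co-transfected protein and tags.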

OR4F6 (Homo sapiens) = target: T2, OR4F6 (Homo sapiens) (UniProt Q8NGB9)
T2 sequence (whole entry): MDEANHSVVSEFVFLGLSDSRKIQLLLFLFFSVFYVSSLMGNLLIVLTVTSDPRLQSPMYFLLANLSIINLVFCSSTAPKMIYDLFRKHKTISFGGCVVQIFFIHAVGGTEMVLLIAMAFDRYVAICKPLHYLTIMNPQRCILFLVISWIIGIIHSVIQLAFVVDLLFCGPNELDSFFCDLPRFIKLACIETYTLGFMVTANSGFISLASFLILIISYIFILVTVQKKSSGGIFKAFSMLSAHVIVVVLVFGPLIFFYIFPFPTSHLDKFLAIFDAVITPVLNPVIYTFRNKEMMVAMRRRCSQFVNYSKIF
Procedure, shortened: as §1

OR4K13 (Homo sapiens) = target: T3, OR4K13 (Homo sapiens) (UniProt Q8NH42)
T3 sequence (whole entry): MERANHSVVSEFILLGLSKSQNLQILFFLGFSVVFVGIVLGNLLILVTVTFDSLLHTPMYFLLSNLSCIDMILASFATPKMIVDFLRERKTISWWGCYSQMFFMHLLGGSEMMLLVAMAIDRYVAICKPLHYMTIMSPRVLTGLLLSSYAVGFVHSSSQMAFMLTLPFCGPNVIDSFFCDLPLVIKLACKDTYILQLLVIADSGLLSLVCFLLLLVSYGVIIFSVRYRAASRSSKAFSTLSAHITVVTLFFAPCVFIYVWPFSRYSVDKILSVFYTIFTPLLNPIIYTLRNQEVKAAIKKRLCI
Procedure, shortened: as §1

OR4K14 (Homo sapiens) = target: T4, OR4K14 (Homo sapiens) (UniProt Q8NGD5)
T4 sequence (whole entry): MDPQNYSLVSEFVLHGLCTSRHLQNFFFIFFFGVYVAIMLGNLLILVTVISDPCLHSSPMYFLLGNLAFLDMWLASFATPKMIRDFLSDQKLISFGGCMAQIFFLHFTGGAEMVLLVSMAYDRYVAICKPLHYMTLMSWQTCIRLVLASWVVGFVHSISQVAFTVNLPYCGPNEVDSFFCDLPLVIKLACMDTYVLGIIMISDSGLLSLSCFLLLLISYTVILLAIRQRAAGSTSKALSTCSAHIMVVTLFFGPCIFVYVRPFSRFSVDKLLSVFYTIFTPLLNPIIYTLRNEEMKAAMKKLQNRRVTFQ
Procedure, shortened: as §1

OR4K1 = test system: T5, OR4K1
T5 sequence (whole entry): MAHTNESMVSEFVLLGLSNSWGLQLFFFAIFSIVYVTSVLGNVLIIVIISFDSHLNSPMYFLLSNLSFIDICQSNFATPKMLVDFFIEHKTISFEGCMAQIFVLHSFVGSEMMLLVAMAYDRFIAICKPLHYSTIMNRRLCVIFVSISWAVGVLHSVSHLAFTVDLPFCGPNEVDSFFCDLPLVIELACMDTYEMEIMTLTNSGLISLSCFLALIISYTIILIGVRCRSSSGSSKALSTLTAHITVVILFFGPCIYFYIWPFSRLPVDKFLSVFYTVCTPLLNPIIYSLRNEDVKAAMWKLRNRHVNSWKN
Procedure, shortened: as §1

OR4K2 (Homo sapiens) = target: T6, OR4K2 (Homo sapiens) (UniProt Q8NGD2)
T6 sequence (whole entry): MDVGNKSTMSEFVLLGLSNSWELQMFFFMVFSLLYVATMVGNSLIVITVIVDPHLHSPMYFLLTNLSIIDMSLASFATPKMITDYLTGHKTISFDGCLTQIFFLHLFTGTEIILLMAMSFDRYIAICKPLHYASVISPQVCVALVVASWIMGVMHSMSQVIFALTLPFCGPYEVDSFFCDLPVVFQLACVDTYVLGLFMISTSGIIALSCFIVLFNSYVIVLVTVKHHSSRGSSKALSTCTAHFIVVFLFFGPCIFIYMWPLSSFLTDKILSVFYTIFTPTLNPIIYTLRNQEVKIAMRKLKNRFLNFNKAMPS
Procedure, shortened: as §1

OR4K3 = test system: T7, OR4K3
T7 sequence (whole entry): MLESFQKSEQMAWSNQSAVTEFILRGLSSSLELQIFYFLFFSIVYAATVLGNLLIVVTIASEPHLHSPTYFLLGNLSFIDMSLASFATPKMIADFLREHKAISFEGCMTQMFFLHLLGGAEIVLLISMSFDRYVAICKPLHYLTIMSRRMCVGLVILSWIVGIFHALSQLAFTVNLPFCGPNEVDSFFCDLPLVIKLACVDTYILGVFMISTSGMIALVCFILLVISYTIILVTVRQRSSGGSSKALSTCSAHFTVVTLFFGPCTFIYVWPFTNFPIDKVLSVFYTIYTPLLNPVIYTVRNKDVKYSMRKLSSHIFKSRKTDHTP
Procedure, shortened: as §1

OR4K5 (Homo sapiens) = target: T8, OR4K5 (Homo sapiens) (UniProt Q8NGD3)
T8 sequence (whole entry): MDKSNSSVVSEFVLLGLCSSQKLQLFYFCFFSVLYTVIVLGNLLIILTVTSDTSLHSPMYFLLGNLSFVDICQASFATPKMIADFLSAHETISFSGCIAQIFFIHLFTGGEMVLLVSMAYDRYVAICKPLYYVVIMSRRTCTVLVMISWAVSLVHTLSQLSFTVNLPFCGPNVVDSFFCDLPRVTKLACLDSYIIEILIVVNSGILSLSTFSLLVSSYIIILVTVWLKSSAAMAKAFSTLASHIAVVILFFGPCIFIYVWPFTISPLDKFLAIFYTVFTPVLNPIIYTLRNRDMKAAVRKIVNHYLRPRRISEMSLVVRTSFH
Procedure, shortened: as §1

OR4KF = test system: T9, OR4KF
T9 sequence (whole entry): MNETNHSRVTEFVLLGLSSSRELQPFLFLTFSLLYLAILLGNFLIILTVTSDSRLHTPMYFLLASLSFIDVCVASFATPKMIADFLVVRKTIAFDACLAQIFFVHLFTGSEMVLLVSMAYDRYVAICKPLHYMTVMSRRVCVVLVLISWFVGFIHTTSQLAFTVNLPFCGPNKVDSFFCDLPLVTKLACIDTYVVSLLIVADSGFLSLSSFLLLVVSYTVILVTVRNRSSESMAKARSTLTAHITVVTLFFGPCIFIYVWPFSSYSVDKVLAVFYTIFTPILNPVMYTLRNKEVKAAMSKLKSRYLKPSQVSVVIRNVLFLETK
Procedure, shortened: as §1

OR4KH = test system: T10, OR4KH
T10 sequence (whole entry): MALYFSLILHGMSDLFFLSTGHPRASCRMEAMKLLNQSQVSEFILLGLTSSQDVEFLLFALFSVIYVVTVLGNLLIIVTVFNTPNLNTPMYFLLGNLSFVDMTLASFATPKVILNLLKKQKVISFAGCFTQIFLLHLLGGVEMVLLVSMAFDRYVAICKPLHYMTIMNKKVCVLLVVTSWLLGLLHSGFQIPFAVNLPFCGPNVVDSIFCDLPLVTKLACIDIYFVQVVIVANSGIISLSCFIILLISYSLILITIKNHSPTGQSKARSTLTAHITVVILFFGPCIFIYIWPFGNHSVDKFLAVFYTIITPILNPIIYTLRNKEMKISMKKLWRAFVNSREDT
Procedure, shortened: as §1

OR4L1 = test system: T11, OR4L1
T11 sequence (whole entry): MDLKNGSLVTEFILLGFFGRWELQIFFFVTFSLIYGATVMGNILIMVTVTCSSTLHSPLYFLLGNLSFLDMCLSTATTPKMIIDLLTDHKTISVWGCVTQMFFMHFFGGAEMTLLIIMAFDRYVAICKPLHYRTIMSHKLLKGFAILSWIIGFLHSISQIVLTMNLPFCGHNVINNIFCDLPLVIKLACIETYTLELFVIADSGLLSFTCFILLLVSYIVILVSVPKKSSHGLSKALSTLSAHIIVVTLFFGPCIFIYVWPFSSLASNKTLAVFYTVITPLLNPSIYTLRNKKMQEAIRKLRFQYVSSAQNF
Procedure, shortened: as §1

OR4M1 (Homo sapiens) = target: T12, OR4M1 (Homo sapiens) (UniProt Q8NGD0)
T12 sequence (whole entry): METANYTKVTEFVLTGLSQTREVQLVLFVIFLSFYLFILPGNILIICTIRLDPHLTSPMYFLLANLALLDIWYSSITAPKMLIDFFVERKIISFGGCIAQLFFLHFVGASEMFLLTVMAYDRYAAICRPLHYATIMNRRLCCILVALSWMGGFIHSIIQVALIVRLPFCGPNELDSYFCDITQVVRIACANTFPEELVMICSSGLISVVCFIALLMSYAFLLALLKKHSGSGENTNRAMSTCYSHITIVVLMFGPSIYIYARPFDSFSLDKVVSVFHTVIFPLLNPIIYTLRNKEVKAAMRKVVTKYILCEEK
Procedure, shortened: as §1

OR4N2 (Homo sapiens) = target: T13, OR4N2 (Homo sapiens) (UniProt Q8NGD1)
T13 sequence (whole entry): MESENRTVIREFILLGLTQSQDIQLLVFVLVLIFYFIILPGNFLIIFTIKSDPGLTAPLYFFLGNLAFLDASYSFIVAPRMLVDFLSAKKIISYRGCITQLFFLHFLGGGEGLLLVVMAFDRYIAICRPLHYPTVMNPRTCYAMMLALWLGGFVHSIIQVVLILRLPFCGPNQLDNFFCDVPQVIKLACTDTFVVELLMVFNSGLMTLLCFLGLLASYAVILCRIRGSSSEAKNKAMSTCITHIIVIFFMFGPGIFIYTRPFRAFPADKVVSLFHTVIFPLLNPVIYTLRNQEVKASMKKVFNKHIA
Procedure, shortened: as §1

Measured: odorant receptor agonist call

CC(C)C(=O)O
inactive: OR4F4 | OR4F6 (Homo sapiens) | OR4K13 (Homo sapiens) | OR4K14 (Homo sapiens) | OR4K1 | OR4K2 (Homo sapiens) | OR4K3 | OR4K5 (Homo sapiens) | OR4KF | OR4KH | OR4L1 | OR4M1 (Homo sapiens) | OR4N2 (Homo sapiens)

CCCCCCCCOC(C)=O
inactive: OR4F4 | OR4F6 (Homo sapiens) | OR4K13 (Homo sapiens) | OR4K14 (Homo sapiens) | OR4K1 | OR4K2 (Homo sapiens) | OR4K3 | OR4K5 (Homo sapiens) | OR4KF | OR4KH | OR4L1 | OR4M1 (Homo sapiens) | OR4N2 (Homo sapiens)

CC(=O)OC(C)(C)C1CC=C(C)CC1 (stereo unspecified)
active: OR4F4 | OR4KF
inactive: OR4F6 (Homo sapiens) | OR4K13 (Homo sapiens) | OR4K14 (Homo sapiens) | OR4K1 | OR4K2 (Homo sapiens) | OR4K3 | OR4K5 (Homo sapiens) | OR4KH | OR4L1 | OR4M1 (Homo sapiens) | OR4N2 (Homo sapiens)

CCCCCCCOC(C)=O
inactive: OR4F4 | OR4F6 (Homo sapiens) | OR4K13 (Homo sapiens) | OR4K14 (Homo sapiens) | OR4K1 | OR4K2 (Homo sapiens) | OR4K3 | OR4K5 (Homo sapiens) | OR4KF | OR4KH | OR4L1 | OR4M1 (Homo sapiens) | OR4N2 (Homo sapiens)

COc1cc(C)ccc1O
inactive: OR4F6 (Homo sapiens) | OR4K13 (Homo sapiens) | OR4K14 (Homo sapiens) | OR4K1 | OR4K2 (Homo sapiens) | OR4K3 | OR4K5 (Homo sapiens) | OR4KF | OR4KH | OR4L1 | OR4M1 (Homo sapiens) | OR4N2 (Homo sapiens)
active: OR4F4

CCCCCC(=O)O
inactive: OR4F4 | OR4F6 (Homo sapiens) | OR4K13 (Homo sapiens) | OR4K14 (Homo sapiens) | OR4K1 | OR4K2 (Homo sapiens) | OR4K3 | OR4K5 (Homo sapiens) | OR4KF | OR4KH | OR4L1 | OR4M1 (Homo sapiens) | OR4N2 (Homo sapiens)

CC(C)CCC(=O)O
inactive: OR4F6 (Homo sapiens) | OR4K13 (Homo sapiens) | OR4K14 (Homo sapiens) | OR4K1 | OR4K2 (Homo sapiens) | OR4K3 | OR4K5 (Homo sapiens) | OR4KF | OR4KH | OR4L1 | OR4M1 (Homo sapiens) | OR4N2 (Homo sapiens)
active: OR4F4

CC(C)CC(=O)O
inactive: OR4F4 | OR4F6 (Homo sapiens) | OR4K13 (Homo sapiens) | OR4K14 (Homo sapiens) | OR4K1 | OR4K2 (Homo sapiens) | OR4K3 | OR4K5 (Homo sapiens) | OR4KF | OR4KH | OR4L1 | OR4M1 (Homo sapiens) | OR4N2 (Homo sapiens)

CCCC(=O)O
inactive: OR4F4 | OR4F6 (Homo sapiens) | OR4K13 (Homo sapiens) | OR4K14 (Homo sapiens) | OR4K1 | OR4K2 (Homo sapiens) | OR4K3 | OR4K5 (Homo sapiens) | OR4KF | OR4KH | OR4L1 | OR4M1 (Homo sapiens) | OR4N2 (Homo sapiens)

CCCCCOC(C)=O
active: OR4F4
inactive: OR4F6 (Homo sapiens) | OR4K13 (Homo sapiens) | OR4K14 (Homo sapiens) | OR4K1 | OR4K2 (Homo sapiens) | OR4K3 | OR4K5 (Homo sapiens) | OR4KF | OR4KH | OR4L1 | OR4M1 (Homo sapiens) | OR4N2 (Homo sapiens)

CCC1(O)C2(C)CCC(C2)C1(C)C (stereo unspecified)
active: OR4F4
inactive: OR4F6 (Homo sapiens) | OR4K13 (Homo sapiens) | OR4K14 (Homo sapiens) | OR4K1 | OR4K2 (Homo sapiens) | OR4K3 | OR4K5 (Homo sapiens) | OR4KF | OR4KH | OR4L1 | OR4M1 (Homo sapiens) | OR4N2 (Homo sapiens)

C=CCc1ccc(OC(C)=O)c(OC)c1
inactive: OR4F6 (Homo sapiens) | OR4K13 (Homo sapiens) | OR4K14 (Homo sapiens) | OR4K1 | OR4K2 (Homo sapiens) | OR4K3 | OR4K5 (Homo sapiens) | OR4KH | OR4L1 | OR4N2 (Homo sapiens)
active: OR4F4 | OR4KF | OR4M1 (Homo sapiens)
